Bridge positions count the residues as written; N and C are the ends. Square brackets hold non-standard residues; d marks the D form. Peptide text beside a SMILES is read from it. * marks the point of attachment. Myristoyl = CCCCCCCCCCCCCC(=O)*; Orn = NCCC[C@H](N)C(=O)O; Dab = NCC[C@H](N)C(=O)O; Dap = NC[C@H](N)C(=O)O

A short description of this data set: Isothermal titration calorimetry. It is filed as binding, Escherichia coli O55:B5. The conditions noted are these: Table S12; ITC, in H2O. The method, then:
Calorimetric experiments were performed to evaluate the interaction between CL, PE, PG, or LPS and aquicidine L or aquicidine C4. To determine the affinity between aquicidine L or aquicidine C4 and CL, PE, or PG, both 2 mM CL, PE, or PG and 0.2 mM aquicidine L or aquicidine C4 were dissolved in 20 mM HEPES buffer (pH 7.5). To determine the interaction between LPS and aquicidine L or aquicidine C4, 2 mM LPS and 0.2 mM aquicidine L or aquicidine C4 were dissolved in H2O. Sequential injections of CL, PE, PG, or LPS into the calorimetric cell filled with aquicidine L or aquicidine C4 were repeated 20 times with equilibration intervals of 200 s. Data were collected by using a MicroCal PEAQ‐ITC instrument and calculated for the equilibrium dissociation constant (KD), change of enthalpy (ΔH), and change of entropy […].

Regarding `CCCCCCCCCCCCCC(=O)N[C@@H](CN)C(=O)N[C@H](C(=O)N[C@@H](CC(C)C)C(=O)N[C@@H](CO)C(=O)N[C@@H](CCN)C(=O)N[C@@H](CN)C(=O)N[C@@H](Cc1ccccc1)C(=O)N[C@H](C(=O)N[C@@H](CCCN)C(=O)N[C@@H](CC(N)=O)C(=O)N[C@@H](Cc1ccccc1)C(=O)O)[C@@H](C)CC)[C@@H](C)O` [synAQU5-L] (Myristoyl-[Dap]TLS[Dab][Dap]FI[Orn]NF-OH), the “ΔG (kcal/mol), LPS” value is given as -9.85 kcal/mol; the “ΔH (kcal/mol), LPS” value was -0.91 kcal/mol; the “ΔS (kcal/mol/K), LPS” value turned out to be 0.030 kcal/mol/K.

As for `CCCCCCCCCCCCCC(=O)N[C@@H](CN)C(=O)N[C@H](C(=O)N[C@@H](CC(C)C)C(=O)N[C@H]1COC(=O)[C@H](Cc2ccccc2)NC(=O)[C@H](CC(N)=O)NC(=O)[C@H](CCCN)NC(=O)[C@H]([C@@H](C)CC)NC(=O)[C@H](Cc2ccccc2)NC(=O)[C@H](CN)NC(=O)[C@H](CCN)NC1=O)[C@@H](C)O` [synAQU5-C4] (Myristoyl-[Dap]TLS[Dab][Dap]FI[Orn]NF; ester 4-C), the “ΔG (kcal/mol), LPS” value was -7.59 kcal/mol; the “ΔH (kcal/mol), LPS” value is given as -1.93 kcal/mol; the “ΔS (kcal/mol/K), LPS” value came to 0.019 kcal/mol/K.

Source of the values: paper PMC12677607, “Identification of a Pair of Linear or Cyclic Naturally Inspired Bifunctional Lipopeptide Antibiotics That Overcome Antimicrobial Resistance” (Advanced Science, 2025).
